Laboratory results taken from publication PMC11738990.
The source holds more than one record for some entries. The other results are left out here. An entry can have further records. The records of an entry differ for a reason that is not stated; they may come from other doses, times, organisms or constructs than stated.

Test system: primary lung fibroblasts from healthy donors
Assay: FMT by α-SMA, high-content analysis

With `CC(C)n1cnc(-c2ccc(F)cc2)c1-c1ncc(C(=O)Nc2ccc(N3CCN(C)CC3)cc2)[nH]1` the IC50 was 200 nM and 320 nM.
